Some of the results follow. The data scatter; read single values as rough.

Amino acid sequences for entries named in this document (tags omitted). A change or cut given only in a name is not applied to a line headed by its entry. Residues count along the entry.
UniProt O96011: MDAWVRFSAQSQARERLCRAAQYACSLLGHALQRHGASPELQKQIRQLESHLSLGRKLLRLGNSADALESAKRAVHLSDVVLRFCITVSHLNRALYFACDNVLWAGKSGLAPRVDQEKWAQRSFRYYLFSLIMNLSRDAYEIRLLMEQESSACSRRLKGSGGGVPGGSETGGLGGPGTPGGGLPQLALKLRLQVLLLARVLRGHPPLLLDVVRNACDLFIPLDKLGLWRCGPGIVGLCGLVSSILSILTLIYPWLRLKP
UniProt Q9H792: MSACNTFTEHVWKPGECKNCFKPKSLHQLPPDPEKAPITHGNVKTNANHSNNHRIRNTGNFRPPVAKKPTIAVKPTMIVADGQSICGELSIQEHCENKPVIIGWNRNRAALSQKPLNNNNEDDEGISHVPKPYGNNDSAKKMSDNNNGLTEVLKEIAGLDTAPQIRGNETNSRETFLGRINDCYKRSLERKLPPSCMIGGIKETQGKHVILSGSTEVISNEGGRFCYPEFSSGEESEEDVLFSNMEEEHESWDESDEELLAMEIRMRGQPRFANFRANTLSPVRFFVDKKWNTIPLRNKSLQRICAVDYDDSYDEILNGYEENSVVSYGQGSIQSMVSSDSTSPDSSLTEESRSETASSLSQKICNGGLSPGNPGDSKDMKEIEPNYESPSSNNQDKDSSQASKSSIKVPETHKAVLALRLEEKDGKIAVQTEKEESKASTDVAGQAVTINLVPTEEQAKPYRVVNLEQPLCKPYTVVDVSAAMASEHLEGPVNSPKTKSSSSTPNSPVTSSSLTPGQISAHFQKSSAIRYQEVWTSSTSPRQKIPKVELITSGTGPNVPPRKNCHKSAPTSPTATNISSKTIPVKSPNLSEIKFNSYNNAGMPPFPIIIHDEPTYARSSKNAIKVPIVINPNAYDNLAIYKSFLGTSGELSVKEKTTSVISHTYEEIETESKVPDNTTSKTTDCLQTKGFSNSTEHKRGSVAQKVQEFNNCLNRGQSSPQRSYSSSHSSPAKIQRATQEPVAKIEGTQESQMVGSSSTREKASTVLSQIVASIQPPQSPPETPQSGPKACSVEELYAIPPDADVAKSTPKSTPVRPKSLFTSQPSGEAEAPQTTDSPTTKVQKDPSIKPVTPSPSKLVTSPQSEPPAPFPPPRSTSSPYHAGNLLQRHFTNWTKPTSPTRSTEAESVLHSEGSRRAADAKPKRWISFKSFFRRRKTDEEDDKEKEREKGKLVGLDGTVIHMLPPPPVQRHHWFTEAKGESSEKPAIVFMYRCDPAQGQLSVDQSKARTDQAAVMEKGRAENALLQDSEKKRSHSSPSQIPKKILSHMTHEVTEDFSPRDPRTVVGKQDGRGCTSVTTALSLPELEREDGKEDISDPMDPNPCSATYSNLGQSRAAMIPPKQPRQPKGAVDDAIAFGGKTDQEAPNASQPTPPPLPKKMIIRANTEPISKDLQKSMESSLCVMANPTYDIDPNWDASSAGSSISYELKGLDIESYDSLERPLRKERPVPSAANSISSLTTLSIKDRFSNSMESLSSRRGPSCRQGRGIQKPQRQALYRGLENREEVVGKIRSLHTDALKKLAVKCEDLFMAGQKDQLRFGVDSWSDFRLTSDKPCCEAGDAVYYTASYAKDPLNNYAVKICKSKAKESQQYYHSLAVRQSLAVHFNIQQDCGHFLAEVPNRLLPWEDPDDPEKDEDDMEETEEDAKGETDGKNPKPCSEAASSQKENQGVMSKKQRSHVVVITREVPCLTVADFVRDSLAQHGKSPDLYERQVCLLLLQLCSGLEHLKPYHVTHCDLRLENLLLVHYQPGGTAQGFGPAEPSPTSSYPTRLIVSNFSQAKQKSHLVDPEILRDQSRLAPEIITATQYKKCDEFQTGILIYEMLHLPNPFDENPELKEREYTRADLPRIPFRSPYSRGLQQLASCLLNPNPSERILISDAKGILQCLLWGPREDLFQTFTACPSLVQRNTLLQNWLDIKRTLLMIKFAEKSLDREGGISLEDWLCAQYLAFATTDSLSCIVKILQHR
UniProt Q29RF7: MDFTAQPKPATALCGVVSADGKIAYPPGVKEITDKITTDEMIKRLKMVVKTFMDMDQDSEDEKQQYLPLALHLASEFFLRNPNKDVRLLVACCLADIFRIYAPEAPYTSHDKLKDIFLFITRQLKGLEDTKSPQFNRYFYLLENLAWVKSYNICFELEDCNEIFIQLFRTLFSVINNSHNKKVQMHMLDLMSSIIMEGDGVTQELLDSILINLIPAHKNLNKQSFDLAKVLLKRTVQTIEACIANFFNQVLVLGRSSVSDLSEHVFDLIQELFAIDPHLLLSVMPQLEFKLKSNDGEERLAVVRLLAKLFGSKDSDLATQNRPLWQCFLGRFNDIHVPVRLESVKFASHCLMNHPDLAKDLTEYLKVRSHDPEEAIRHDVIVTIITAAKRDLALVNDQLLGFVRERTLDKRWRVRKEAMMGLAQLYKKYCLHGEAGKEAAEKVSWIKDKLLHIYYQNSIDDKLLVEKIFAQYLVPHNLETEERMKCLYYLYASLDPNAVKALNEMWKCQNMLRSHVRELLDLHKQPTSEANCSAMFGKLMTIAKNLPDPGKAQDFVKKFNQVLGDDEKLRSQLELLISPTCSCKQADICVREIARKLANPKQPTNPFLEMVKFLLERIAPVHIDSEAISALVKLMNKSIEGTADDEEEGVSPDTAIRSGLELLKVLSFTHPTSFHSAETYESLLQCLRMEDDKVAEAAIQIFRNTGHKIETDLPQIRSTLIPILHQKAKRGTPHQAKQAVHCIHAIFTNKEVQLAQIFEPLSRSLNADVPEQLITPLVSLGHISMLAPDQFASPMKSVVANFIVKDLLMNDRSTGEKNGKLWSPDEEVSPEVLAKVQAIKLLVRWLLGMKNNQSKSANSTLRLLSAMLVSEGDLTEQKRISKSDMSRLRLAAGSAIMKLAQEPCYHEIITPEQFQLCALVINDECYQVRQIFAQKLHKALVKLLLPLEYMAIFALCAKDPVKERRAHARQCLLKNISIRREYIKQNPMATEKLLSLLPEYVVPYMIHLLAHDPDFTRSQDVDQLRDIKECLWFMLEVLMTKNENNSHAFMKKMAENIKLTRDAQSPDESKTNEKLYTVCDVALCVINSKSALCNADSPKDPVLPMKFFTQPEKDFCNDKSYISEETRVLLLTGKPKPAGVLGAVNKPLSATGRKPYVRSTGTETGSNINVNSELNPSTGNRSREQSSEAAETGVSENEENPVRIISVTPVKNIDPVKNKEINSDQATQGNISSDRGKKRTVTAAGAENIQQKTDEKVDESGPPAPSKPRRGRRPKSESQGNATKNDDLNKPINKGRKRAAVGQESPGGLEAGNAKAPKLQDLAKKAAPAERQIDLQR
UniProt Q99497: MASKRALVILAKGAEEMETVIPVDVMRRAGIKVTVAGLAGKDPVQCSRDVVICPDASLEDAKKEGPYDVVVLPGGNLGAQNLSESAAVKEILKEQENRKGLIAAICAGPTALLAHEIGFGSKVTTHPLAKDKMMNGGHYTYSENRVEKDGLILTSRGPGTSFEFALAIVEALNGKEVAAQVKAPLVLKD
UniProt P09874, whole entry, looked up: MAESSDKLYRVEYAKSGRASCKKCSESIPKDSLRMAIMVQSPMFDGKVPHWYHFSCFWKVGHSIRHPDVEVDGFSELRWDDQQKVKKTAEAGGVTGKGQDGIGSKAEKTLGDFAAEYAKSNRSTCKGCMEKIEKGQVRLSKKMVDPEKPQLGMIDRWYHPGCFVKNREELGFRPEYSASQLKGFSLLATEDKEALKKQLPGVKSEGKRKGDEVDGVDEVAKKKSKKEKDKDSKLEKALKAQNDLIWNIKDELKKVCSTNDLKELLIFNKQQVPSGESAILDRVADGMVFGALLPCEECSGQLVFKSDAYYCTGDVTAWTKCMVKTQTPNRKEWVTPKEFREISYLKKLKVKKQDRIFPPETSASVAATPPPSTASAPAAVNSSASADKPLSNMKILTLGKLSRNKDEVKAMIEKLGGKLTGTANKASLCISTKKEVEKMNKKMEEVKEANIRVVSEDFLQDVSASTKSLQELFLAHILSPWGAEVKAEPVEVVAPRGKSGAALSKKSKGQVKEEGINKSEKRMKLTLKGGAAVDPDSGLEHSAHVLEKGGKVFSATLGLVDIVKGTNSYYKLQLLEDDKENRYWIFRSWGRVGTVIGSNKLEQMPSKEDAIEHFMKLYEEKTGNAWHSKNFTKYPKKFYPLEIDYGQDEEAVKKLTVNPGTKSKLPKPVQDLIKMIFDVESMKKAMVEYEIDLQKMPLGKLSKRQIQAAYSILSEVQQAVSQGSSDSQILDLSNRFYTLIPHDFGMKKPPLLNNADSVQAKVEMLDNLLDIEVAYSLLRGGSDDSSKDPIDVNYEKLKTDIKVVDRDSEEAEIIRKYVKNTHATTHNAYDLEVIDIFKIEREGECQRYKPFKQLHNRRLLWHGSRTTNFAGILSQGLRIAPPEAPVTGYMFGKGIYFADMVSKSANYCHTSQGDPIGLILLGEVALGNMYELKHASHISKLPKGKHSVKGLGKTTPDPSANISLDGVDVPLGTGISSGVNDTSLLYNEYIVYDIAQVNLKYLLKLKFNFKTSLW
UniProt Q15154: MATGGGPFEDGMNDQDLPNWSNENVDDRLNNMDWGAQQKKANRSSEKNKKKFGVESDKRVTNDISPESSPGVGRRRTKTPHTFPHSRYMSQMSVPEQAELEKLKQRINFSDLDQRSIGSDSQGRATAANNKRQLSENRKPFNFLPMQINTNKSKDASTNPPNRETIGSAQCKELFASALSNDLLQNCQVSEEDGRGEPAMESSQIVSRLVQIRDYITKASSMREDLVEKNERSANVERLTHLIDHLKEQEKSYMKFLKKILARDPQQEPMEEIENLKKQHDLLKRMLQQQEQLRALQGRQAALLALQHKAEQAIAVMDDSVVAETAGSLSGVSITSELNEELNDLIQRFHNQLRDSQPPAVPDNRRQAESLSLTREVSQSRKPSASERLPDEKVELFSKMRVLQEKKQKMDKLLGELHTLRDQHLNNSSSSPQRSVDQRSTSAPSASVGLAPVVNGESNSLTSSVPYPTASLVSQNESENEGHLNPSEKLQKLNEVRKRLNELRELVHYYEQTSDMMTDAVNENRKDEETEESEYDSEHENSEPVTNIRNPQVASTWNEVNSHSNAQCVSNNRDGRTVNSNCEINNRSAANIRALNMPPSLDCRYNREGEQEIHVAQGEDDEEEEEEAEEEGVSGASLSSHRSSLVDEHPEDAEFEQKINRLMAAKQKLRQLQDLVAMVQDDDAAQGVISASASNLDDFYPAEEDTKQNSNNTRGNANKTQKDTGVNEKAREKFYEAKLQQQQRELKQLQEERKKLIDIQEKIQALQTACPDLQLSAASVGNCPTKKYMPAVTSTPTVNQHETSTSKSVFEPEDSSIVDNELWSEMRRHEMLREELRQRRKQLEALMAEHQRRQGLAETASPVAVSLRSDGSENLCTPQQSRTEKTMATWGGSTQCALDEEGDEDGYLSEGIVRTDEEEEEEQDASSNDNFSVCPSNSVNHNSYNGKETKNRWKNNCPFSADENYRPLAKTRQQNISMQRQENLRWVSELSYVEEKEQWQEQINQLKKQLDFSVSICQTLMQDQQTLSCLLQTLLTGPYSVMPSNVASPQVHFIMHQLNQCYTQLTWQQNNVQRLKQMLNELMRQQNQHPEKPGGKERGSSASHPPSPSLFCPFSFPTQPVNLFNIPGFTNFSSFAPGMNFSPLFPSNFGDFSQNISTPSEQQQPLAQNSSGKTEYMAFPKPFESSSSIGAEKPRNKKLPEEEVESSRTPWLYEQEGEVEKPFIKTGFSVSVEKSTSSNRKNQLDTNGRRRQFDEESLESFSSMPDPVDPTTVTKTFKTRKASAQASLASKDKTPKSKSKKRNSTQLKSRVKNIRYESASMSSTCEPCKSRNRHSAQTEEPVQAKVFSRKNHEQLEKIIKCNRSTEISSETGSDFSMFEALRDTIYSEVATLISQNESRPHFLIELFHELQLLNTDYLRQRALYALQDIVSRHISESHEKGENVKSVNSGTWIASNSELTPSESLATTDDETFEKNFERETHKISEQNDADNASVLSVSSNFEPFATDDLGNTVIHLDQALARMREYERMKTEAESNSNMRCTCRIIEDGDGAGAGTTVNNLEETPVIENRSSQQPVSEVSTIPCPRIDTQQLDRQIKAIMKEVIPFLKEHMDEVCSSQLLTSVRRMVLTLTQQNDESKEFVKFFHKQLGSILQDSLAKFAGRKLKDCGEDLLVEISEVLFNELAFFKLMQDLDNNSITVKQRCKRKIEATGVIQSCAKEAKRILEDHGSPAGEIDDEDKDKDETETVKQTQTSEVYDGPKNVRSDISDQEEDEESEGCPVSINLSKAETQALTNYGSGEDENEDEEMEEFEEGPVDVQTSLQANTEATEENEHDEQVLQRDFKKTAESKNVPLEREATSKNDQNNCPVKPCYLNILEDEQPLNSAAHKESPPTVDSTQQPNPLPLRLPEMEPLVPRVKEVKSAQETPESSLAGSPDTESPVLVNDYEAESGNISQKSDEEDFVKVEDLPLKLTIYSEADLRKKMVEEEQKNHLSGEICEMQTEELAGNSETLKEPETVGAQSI
UniProt P18669, 142-162: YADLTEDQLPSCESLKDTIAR

Compound in the first test: ClCC(=O)N[C@@H]1CCCc2ccccc12
Nature of the test: log2 mean competition ratio of IA-DTB cysteine labelling (DMSO/compound) (log2 ratio); higher = stronger cysteine engagement by compound. To be noted: 50 µM; treatment time: 4 h; cell line lysate: HEK293T. How it is done:
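IA-DTB competitive cysteine chemoproteomics in HEK293T RIPA lysate. Lysates were treated with compound 29 or 30 at 50 or 200 µM for 4 h, then IA-DTB (500 µM, 1 h), trypsin-digested, NeutrAvidin-enriched and analysed by diaPASEF. Competition ratio = intensity DMSO / intensity compound (n=4 treated, n=64 DMSO); binding: mean log2 CR ≥ 1 and p ≤ 0.05 plus QC filters. Target is the cysteine site.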
As to PACSIN3 C231 (UniProt Q9UKS6), the “log2 mean competition ratio” value was determined as 0.204.
The same measure, in the same setting: then PEX11B C153 (UniProt O96011), with 0.0122; and PATJ C941, with 0.322.
On the same count and under the same terms, then PES1 C272 (UniProt O00541), with 0.357; and PARP9 C728 (UniProt Q8IXQ6), with -0.213.
On the same count and under the same terms, then PEAK1 C993 (UniProt Q9H792), with 0.0685; and PAG1 C179 (UniProt Q9NWQ8), with -0.351.
For PEAK1 C1437 (UniProt Q9H792), the “log2 mean competition ratio” value worked out at 0.0693.
For the target PAK2 C390 (UniProt Q13177), the “log2 mean competition ratio” value is -0.143.
For PCBP2 C158, the “log2 mean competition ratio” value turned out to be 0.265.
Same read-out and setting: the figure for PDS5A C1093 (UniProt Q29RF7) is 0.0599.
On the same count and under the same terms, then PBX1 C220, with -0.211.
Take PEAK1 C685 (UniProt Q9H792): the “log2 mean competition ratio” value was -0.0796.
Same read-out and setting: the figure for PARK7 C46 (UniProt Q99497) is 0.34; for PCIF1 C455 (UniProt Q9H4Z3) it is 0.101.
On the same count and under the same terms, the figure for PEAK1 C365 (UniProt Q9H792) is 0.242; for PCBP4 C58 it is -0.011; for PARP1 C256 (UniProt P09874) it is -0.00765.
Same read-out and setting: then PCM1 C876 (UniProt Q15154), with 0.0113; and PDXDC1 C425 (UniProt Q6P996), with 0.266; and PGAM1 C153 (UniProt P18669), with -0.15.

The same test, now with this note: 200 µM; treatment time: 4 h; cell line lysate: HEK293T.
PACSIN3 C231 (UniProt Q9UKS6): the “log2 mean competition ratio” value was -0.448.
Still for that read-out and setting: then PEX11B C153 (UniProt O96011), with 0.105; and PATJ C941, with 0.115; and PES1 C272 (UniProt O00541), with 0.384.
Consider PARP9 C728 (UniProt Q8IXQ6), for which the “log2 mean competition ratio” value was -0.184.
For PEAK1 C993 (UniProt Q9H792), the “log2 mean competition ratio” value is -0.27.
PAG1 C179 (UniProt Q9NWQ8): the “log2 mean competition ratio” value stood at 0.62.
On the same count and under the same terms, then PAK2 C390 (UniProt Q13177), with -0.103; and PCBP2 C158, with -0.00554; and PDS5A C1093 (UniProt Q29RF7), with 0.192.
Consider PBX1 C220, for which the “log2 mean competition ratio” value was 0.197.
The same measure, in the same setting: the figure for PEAK1 C685 (UniProt Q9H792) is 0.249; for PARK7 C46 (UniProt Q99497) it is -0.492.
For PCIF1 C455 (UniProt Q9H4Z3), the “log2 mean competition ratio” value is -0.0368.
Same read-out and setting: the figure for PEAK1 C365 (UniProt Q9H792) is -0.0919.
On to PCBP4 C58, for which the “log2 mean competition ratio” value is -0.0151.
On to PARP1 C256 (UniProt P09874), for which the “log2 mean competition ratio” value is -0.183.
As to PCM1 C876 (UniProt Q15154), the “log2 mean competition ratio” value worked out at 0.137.
For PDXDC1 C425 (UniProt Q6P996), the “log2 mean competition ratio” value was determined as 0.366.
The same measure, in the same setting: then PGAM1 C153 (UniProt P18669), with 0.129.
